In publication doi:10.1101/2021.01.14.426638:
These are yes or no findings as the source states them, for the method shown. Binding seen in cells or lysates may run through a third protein. A yes stands for co-enrichment or nearness to the bait. Other partners may have been found. Sequences can lack the tags named with a protein.

Chains of the proteins cited; added tags and fusions are not shown.
UniProt Q61879: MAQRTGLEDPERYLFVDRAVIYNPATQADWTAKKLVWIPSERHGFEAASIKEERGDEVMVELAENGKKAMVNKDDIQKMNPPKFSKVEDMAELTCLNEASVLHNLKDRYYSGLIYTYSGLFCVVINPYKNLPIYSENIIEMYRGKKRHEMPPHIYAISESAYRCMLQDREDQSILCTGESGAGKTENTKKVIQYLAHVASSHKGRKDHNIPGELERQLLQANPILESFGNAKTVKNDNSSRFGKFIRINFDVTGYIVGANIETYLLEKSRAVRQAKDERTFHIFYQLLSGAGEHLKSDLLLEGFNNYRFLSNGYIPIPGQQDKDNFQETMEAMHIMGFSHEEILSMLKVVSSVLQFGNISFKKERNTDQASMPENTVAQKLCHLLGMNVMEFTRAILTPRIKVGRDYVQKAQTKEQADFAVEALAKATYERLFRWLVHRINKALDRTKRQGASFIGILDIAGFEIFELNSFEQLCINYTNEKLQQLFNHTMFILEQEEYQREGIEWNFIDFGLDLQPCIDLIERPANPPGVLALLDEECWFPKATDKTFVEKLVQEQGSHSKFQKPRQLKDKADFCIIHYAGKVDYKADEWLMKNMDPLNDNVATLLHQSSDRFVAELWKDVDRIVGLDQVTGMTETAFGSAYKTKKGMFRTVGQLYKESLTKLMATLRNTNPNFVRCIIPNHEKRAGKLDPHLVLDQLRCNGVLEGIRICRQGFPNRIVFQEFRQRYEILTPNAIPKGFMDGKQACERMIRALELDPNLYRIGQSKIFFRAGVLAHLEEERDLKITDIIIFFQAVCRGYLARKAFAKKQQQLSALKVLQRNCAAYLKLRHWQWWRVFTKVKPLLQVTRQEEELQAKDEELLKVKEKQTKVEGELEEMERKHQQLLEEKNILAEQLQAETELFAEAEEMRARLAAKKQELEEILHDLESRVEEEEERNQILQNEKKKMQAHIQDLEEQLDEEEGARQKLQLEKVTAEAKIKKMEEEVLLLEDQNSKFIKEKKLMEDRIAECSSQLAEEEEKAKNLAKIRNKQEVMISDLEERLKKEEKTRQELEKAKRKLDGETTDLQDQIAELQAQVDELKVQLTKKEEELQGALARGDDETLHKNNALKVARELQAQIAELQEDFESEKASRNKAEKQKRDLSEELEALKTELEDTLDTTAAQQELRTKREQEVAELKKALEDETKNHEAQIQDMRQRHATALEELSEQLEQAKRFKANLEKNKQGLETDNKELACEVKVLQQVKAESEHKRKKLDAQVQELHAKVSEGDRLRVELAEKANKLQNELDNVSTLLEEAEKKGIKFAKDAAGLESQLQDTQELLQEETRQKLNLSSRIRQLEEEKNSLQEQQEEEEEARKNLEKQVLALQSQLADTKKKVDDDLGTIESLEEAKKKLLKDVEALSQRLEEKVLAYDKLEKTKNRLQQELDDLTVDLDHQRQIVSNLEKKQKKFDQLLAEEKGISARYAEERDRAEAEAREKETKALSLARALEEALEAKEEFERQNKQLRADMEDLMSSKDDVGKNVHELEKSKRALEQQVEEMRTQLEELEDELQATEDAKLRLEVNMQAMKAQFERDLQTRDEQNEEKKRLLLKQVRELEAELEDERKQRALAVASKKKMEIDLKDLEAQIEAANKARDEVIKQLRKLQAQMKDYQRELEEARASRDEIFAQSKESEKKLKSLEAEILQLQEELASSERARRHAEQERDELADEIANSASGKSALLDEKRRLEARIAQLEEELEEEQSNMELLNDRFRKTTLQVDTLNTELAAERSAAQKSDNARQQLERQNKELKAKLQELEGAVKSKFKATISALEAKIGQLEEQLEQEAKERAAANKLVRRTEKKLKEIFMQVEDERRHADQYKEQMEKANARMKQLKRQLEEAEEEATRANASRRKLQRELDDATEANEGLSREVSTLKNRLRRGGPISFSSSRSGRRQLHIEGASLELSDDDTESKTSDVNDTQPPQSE
UniProt Q99NH2: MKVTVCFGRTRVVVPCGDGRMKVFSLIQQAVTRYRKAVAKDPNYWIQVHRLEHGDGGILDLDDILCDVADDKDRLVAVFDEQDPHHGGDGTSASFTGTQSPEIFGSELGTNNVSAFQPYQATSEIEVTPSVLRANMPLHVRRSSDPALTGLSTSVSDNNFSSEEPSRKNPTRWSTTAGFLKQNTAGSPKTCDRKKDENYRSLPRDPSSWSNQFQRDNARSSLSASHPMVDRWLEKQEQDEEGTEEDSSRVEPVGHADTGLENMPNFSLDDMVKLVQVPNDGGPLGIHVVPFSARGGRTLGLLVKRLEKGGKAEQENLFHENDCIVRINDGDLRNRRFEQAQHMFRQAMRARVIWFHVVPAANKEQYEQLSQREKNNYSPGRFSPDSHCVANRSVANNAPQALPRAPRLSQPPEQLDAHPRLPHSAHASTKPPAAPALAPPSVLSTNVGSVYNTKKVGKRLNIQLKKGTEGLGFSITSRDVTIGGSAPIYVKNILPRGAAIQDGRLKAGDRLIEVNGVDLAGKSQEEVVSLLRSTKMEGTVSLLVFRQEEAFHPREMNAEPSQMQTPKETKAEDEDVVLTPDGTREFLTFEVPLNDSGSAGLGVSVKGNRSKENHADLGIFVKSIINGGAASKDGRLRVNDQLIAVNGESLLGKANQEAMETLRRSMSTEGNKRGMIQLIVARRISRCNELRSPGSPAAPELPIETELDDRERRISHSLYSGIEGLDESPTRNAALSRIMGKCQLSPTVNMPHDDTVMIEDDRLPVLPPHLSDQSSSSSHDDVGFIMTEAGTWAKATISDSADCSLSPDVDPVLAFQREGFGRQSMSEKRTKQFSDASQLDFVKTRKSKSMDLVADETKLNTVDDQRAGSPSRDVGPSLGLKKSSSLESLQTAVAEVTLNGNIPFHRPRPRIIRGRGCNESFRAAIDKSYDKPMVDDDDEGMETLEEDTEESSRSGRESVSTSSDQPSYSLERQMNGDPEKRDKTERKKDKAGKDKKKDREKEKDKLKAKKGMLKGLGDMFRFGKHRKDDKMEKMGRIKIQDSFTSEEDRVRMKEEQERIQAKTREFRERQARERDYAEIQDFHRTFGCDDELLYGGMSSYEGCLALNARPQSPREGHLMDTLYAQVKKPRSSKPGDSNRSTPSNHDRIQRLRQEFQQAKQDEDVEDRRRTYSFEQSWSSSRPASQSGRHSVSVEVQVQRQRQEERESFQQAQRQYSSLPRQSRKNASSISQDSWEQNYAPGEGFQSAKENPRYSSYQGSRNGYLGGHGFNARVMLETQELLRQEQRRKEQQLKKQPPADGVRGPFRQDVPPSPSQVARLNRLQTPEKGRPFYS

T1: mouse Amot p130 fused to BirA* (BirA R118G), BioID construct (mouse) (UniProt Q8VHG2)
T1 sequence: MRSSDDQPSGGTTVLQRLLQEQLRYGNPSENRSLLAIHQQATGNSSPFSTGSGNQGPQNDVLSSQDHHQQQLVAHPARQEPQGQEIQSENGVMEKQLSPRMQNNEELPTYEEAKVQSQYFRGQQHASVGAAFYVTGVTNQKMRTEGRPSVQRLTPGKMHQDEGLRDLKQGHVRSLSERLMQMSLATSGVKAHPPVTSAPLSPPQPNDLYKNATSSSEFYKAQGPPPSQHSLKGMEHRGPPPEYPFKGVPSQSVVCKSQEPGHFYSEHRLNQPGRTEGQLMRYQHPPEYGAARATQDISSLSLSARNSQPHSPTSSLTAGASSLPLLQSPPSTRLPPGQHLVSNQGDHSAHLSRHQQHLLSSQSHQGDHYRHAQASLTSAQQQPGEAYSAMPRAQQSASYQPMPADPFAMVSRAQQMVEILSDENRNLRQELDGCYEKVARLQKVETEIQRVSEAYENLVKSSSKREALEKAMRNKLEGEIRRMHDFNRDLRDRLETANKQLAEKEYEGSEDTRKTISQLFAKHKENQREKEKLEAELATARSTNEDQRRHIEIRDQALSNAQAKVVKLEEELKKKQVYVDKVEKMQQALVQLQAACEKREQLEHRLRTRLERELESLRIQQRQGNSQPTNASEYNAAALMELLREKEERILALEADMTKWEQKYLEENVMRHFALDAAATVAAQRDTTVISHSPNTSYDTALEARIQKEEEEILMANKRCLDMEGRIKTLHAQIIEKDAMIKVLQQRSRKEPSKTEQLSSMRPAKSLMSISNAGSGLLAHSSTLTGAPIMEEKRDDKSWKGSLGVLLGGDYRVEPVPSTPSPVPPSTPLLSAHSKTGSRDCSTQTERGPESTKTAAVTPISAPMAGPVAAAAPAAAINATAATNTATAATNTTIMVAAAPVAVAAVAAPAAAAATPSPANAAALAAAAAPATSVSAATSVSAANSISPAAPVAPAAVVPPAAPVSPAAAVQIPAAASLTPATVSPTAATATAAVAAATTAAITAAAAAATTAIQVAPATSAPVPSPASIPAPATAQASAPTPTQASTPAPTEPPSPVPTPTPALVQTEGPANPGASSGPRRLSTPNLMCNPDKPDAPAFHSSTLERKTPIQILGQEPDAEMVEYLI

B1: zyxin, endogenous in MS1 cells (protein, UniProt Q62523 1-564)
chain: MAAPRPPPAISVSVSAPAFYAPQKKFAPVVAPKPKVNPFRPGDSEPPVAAGAQRAQMGRVGEIPPPPPEDFPLPPPPLIGEGDDSEGALGGAFPPPPPPMIEEPFPPAPLEEDIFPSPPPPLEEEGGPEAPTQLPPQPREKVCSIDLEIDSLSSLLDDMTKNDPFKARVSSGYVPPPVATPFVPKPSTKPAPGGTAPLPPWKTPSSSQPPPQPQAKPQVQLHVQPQAKPHVQPQPVSSANTQPRGPLSQAPTPAPKFAPVAPKFTPVVSKFSPGAPSGPGPQPNQKMVPPDAPSSVSTGSPQPPSFTYAQQKEKPLVQEKQHPQPPPAQNQNQVRSPGGPGPLTLKEVEELEQLTQQLMQDMEHPQRQSVAVNESCGKCNQPLARAQPAVRALGQLFHITCFTCHQCQQQLQGQQFYSLEGAPYCEGCYTDTLEKCNTCGQPITDRMLRATGKAYHPQCFTCVVCACPLEGTSFIVDQANQPHCVPDYHKQYAPRCSVCSEPIMPEPGRDETVRVVALDKNFHMKCYKCEDCGKPLSIEADDNGCFPLDGHVLCRKCHSARAQT
B2: kank2, endogenous in MS1 cells (protein, UniProt Q8BX02 1-843)
chain: MAQVLHVPAPFPGTPGQASPAAFPSKEPDPPYSVETPYGYRLDLDFLKYVDDIEKGHTLRRVAVQRRPRLGSLPRGPGSWWTSTESLCSDASGDSRHSAYSYCGRGFYPQYGALETRIGSNPRVERTLLDARRRLEDQAAAPSSGGLGSLTPSAAGSTSSLAGVGLLPPTPRSSGLSTPVAPSAGHLAHVREQMAGALRKLRQLEEQVKLIPVLQVKLSVLQEEKRQLTVQLKSQKFLGHPSGTRSRSELCLDLPEAPDDPAALETRSVGTWVRERDLGIPDGEAALVAKVAVLETQLKKALQELRAAQTQQVDLQPQAWPPPDTQVRVDTVRVVEGPREVEVAASTAAGALAQRAQSLEPYGTGLKALTTSGGPENTLVFRSHEVVETMCPLPTATTGNVHTAKKISITERSCTGAPRMTEPSSVNPRPAAASVVQPENPVPAAQDTTDKKPTRPAAASQDSQAADGAGRASLATKRKEDPADPEVNQRNLQFVGVNGGYESPSEDSSTAENSEHESTENEGPEPPARVLSPAECPQLRPPGAAVATTSLEGPQLSQESQRVPAPEVASGPDPEEEIRMDLSPDLISACLALEKYLENPNALTERELKVAYTTVLQEWLRLACRSDAHPELVRRHLVTFRAMSARLLDYVVNIADSNGNTALHYSVSHANFPVVRQLLDSGVCHVDKLNRAGYSPIMLTALATLKTQDDIETILQLFRLGNVNAKASQAGQTALMLAVSHGRVDVVRALLACEADVNIQDEDGSTALMCACEHGHKEITGLLLAVPSCDISLTDRDGSTALMVALDAGQSEIASMLYSRMNIKCSFAPMSDYESPASSSAEE
B3: catenin delta-1, endogenous in MS1 cells (protein, UniProt P30999 1-938)
chain: MDDSEVESTASILASVKEQEAQFEKLTRALEEERRHVSAQLERVRVSPQDANSLMANGTLTRRHQNGRFVGDADLERQKFSDLKLNGPQDHNHLLYSTIPRMQEPGQIVETYTEEDPEGAMSVVSVETTDDGTTRRTETTVKKVVKTMTTRTVQPVPMGPDGLPVDASAVSNNYIQTLGRDFRKNGNGGPGPYVGQAGTATLPRNFHYPPDGYGRHYEDGYPGGSDNYGSLSRVTRIEERYRPSMEGYRAPSRQDVYGPQPQVRVGGSSVDLHRFHPEPYGLEDDQRSMGYDDLDYGMMSDYGTARRTGTPSDPRRRLRSYEDMIGEEVPPDQYYWAPLAQHERGSLASLDSLRKGMPPPSNWRQPELPEVIAMLGFRLDAVKSNAAAYLQHLCYRNDKVKTDVRKLKGIPILVGLLDHPKKEVHLGACGALKNISFGRDQDNKIAIKNCDGVPALVRLLRKARDMDLTEVITGTLWNLSSHDSIKMEIVDHALHALTDEVIIPHSGWEREPNEDCKPRHIEWESVLTNTAGCLRNVSSERSEARRKLRECDGLVDALIFIVQAEIGQKDSDSKLVENCVCLLRNLSYQVHREIPQAERYQEALPTVANSTGPHAASCFGAKKGKDEWFSRGKKPTEDPANDTVDFPKRTSPARGYELLFQPEVVRIYISLLKESKTPAILEASAGAIQNLCAGRWTYGRYIRSALRQEKALSAIAELLTSEHERVVKAASGALRNLAVDARNKELIGKHAIPNLVKNLPGGQQNSSWNFSEDTVVSILNTINEVIAENLEAAKKLRETQGIEKLVLINKSGNRSEKEVRAAALVLQTIWGYKELRKPLEKEGWKKSDFQVNLNNASRSQSSHSYDDSTLPLIDRNQKSDKKPDREEIPMSNMGSNTKSLDNNYSTLNERGDHNRTLDRSGDLGDMEPLKGAPLMQKI

What follows are molecules tested against T1, mouse Amot p130 fused to BirA* (BirA R118G), BioID construct (mouse) (assay: proximity labelling).

binding, binds:
myosin 10, endogenous in MS1 cells (from UniProt Q61879 1-1976)
Pard3, endogenous in MS1 cells (from UniProt Q99NH2 1-1333)
B1
B2
B3
